Assay results published in paper PMC3514159.
These are yes or no findings as the source states them, for the method shown. Some binding calls cover weakened binding; strength is not graded here.

The chains behind the UniProt entries cited, without tags or fusion partners.
UniProt P48059: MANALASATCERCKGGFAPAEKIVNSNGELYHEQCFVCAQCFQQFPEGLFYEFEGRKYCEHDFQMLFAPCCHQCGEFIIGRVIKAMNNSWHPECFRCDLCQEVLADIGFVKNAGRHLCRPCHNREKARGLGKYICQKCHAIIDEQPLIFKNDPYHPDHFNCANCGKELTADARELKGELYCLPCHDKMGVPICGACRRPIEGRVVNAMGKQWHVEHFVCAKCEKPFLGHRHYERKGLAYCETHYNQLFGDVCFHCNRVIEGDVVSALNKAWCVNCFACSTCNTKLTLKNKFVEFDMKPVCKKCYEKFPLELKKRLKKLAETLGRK
UniProt Q9BYR6: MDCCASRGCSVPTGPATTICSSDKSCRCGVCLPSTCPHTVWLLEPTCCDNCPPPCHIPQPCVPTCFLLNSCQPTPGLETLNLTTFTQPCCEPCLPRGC
UniProt Q99697: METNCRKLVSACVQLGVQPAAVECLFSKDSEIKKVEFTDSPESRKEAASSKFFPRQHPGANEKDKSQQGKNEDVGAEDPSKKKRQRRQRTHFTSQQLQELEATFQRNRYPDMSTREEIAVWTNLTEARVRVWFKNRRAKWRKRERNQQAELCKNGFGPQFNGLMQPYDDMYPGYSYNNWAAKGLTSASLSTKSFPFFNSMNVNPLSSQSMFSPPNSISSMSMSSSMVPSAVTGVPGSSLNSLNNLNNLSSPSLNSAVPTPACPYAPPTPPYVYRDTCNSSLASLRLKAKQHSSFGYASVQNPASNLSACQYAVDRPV
UniProt Q92824: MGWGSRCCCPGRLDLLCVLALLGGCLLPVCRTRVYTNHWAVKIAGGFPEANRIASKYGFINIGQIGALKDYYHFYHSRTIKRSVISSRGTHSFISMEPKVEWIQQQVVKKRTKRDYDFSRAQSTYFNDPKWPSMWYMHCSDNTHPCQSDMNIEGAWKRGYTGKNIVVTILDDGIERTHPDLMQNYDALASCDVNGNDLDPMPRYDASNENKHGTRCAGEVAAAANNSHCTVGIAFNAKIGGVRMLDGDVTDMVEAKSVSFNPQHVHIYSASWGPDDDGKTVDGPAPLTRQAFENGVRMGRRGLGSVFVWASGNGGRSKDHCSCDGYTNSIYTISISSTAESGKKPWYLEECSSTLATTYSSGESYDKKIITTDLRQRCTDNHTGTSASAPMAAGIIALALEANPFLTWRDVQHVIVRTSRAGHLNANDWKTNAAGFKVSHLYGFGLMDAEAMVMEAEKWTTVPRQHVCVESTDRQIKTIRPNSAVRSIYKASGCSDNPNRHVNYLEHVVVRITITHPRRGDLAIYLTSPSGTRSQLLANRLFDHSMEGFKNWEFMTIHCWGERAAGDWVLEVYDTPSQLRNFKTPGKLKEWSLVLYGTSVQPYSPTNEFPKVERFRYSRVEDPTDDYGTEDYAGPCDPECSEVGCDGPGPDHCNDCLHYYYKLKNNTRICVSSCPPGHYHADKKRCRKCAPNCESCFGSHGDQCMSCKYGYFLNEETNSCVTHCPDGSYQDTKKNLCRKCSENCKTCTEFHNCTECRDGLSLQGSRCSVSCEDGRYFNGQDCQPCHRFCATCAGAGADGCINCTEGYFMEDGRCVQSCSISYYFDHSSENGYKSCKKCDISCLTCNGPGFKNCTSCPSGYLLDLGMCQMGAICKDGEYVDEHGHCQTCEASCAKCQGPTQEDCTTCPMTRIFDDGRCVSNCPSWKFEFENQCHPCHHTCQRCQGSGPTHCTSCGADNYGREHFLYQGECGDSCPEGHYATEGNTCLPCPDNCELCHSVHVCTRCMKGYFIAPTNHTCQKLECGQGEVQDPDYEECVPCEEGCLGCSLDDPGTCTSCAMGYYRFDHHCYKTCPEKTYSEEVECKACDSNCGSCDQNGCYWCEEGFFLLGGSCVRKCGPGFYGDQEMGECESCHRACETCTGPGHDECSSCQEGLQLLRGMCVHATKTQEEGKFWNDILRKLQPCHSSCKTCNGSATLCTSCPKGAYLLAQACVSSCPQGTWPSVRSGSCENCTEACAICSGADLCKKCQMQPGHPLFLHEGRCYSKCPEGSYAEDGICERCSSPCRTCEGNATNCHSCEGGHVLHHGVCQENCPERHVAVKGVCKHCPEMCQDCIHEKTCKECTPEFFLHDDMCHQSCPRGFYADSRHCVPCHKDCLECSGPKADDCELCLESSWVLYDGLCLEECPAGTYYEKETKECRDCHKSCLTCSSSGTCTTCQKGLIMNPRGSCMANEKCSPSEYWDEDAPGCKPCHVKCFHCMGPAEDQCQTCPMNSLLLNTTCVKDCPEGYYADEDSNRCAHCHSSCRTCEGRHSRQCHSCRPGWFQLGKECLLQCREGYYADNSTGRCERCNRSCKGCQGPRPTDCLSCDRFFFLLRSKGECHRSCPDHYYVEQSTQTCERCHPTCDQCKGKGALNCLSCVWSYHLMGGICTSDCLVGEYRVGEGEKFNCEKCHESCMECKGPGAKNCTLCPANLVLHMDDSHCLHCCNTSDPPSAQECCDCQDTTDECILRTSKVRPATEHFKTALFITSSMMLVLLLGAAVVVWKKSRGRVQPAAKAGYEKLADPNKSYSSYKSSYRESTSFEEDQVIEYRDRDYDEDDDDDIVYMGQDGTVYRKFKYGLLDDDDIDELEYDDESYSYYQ
UniProt P09022: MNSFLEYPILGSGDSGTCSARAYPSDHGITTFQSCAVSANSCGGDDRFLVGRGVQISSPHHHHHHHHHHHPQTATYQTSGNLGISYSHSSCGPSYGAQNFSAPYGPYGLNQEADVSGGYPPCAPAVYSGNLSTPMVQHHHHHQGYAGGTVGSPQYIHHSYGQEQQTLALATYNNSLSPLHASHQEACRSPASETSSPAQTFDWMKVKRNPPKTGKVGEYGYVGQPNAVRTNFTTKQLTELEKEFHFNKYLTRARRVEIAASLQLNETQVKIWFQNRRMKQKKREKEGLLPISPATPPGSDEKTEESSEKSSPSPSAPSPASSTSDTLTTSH

How the values were obtained:
Assay in all cases: two-hybrid; AD-Hoxa1 (Gal4 activation domain) in MATa Y8800 mated with the DB-hORF library in MATα Y8930; 30°C; selection on Sc-L-T-H + 1 mM 3AT, retest on Sc-L-T-H, Sc-L-T-A and Sc-L-T-H-A+3AT
[1] = target: LIM and senescent cell antigen-like domains 1 (human) (UniProt P48059)
[2] = target: T1, MyoD family inhibitor (human) (UniProt Q99750)
T1 sequence: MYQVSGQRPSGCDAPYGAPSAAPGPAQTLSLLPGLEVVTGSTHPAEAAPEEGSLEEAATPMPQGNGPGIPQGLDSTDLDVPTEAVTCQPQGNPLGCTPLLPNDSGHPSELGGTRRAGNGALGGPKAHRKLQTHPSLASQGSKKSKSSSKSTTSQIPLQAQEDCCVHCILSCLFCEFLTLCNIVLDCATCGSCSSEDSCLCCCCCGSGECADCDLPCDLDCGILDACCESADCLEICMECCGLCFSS

[3] = target: T2, SPARC related modular calcium binding 1 (human) (UniProt Q9H4F8)
T2 sequence: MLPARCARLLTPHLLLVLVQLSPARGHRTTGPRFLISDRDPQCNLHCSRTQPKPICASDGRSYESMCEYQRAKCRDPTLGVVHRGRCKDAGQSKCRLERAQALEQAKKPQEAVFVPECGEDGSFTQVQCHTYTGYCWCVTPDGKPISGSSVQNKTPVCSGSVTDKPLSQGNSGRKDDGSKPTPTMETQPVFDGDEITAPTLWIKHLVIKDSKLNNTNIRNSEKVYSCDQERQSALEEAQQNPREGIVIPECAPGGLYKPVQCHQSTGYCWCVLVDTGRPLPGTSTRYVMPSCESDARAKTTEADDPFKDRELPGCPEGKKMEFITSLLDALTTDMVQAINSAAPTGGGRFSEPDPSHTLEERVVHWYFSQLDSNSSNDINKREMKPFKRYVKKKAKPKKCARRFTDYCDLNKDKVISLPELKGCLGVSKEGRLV

[4] = target: keratin associated protein 3-3 (human) (UniProt Q9BYR6)
[5] = target: paired-like homeodomain 2 (human) (UniProt Q99697)
[6] = target: proprotein convertase subtilisin/kexin type 5 (human) (UniProt Q92824)

Measured: binding

Hoxa1 (from UniProt P09022 1-331)
binds: all assays above
